Data published in patent publication US20090048179A1, “USE OF 5-PHOSPHODIESTERASE INHIBITORS TO ENHANCE THE PERMEABILITY OF THE BLOOD-BRAIN BARRIER OF ABNORMAL BRAIN TISSUE AND THE BLOOD-TUMOR BARRIER” (CEDARS-SINAI MEDICAL CENTER, priority 2005, published 2009).
At least one compound was matched to its structure with a doubt left. No end group written: not given here.

Columns and labels:
CRL-5904 tumor cells = assay: In vitro cellular transport of doxorubicin, CRL-5904; type: cell-based, human; conditions: versus doxorubicin alone
[1] = test system: blood-tumor barrier (BTB) of 9L gliosarcoma brain tumors; conditions: literature; cited from earlier work
[2] = test system: blood-tumor barrier (BTB) of 9L gliosarcoma brain tumors; assay: [14C] sucrose transport (Ki) from blood into 9L brain tumors, quantitative autoradiography; type: in vivo, rat; conditions: versus untreated control; same doses as Ki

Row | Compound | Adriamycin (doxorubicin) transport (CRL-5904 tumor cells) | time after intra-carotid infusion within which effect on transport into tumors is diminished [1] [min] | increase in BTB permeability [2] [fold]
1 | CCCc1nc(C)c2c(=O)[nH]c(-c3cc(S(=O)(=O)N4CCN(CC)CC4)ccc3OCC)nn12 [vardenafil] | significantly enhanced |  | 
2 | RPPGFSPFR [BK, Bradykinin] |  | ≤ 15 | 2.4
